Results from one PubChem assay

The results are deposited in PubChem (AID1080; Emory University Molecular Libraries Screening Center, 2008).

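A cell line overexpressing EP4 prostanoid receptors, stimulated with a low (about EC15) PGE2 dose; cAMP read by HTRF FRET after a short room-temperature incubation.
Compounds were tested at 20 µM final. A low (about EC15) PGE2 dose was present.
Percent cAMP induction as a fraction of the 1 µM PGE2 response, averaged over three replicates; a higher value means more cAMP.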

Values are in %.
Common to all entries: measured here: EP4 receptor counter-screen.
This is a side read-out of the assay, for part of the compounds, not drawn at random.

Compound,tested on / at,cAMP induction (%)
O=C(O)/C=C/c1ccccc1Oc1ccc(Cl)cc1Cl,percent of 1 uM PGE2 response; plus low (about EC15) PGE2 agonist,0.9767
Nc1c(C(=O)NCc2ccco2)c2nc3ccccc3nc2n1CCc1ccccc1,percent of 1 uM PGE2 response; plus low (about EC15) PGE2 agonist,-7.927
COc1ncnc2c1oc1nc(CC(C)C)c3c(c12)CCCC3,percent of 1 uM PGE2 response; plus low (about EC15) PGE2 agonist,14.56
CC1CCN(c2ccccc2NC(=O)c2ccc(C#N)cc2F)CC1,percent of 1 uM PGE2 response; plus low (about EC15) PGE2 agonist,17.4
CC(=O)c1sc2nc(-c3ccc(C)cc3)c3c(c2c1N)CCCC3,percent of 1 uM PGE2 response; plus low (about EC15) PGE2 agonist,28.84
Cn1c(=O)c2c(nc(SCC(=O)N3CCc4ccccc4C3)n2C)n(C)c1=O,percent of 1 uM PGE2 response; plus low (about EC15) PGE2 agonist,4.173
CC(C)OC(=O)c1c(NC(=O)c2cccs2)sc2c1CCCC2,percent of 1 uM PGE2 response; plus low (about EC15) PGE2 agonist,15.28
CCc1ccc2[nH]c(=O)c(CN(Cc3nnnn3C3CCCC3)C3CCCCC3)cc2c1,percent of 1 uM PGE2 response; plus low (about EC15) PGE2 agonist,-8.067
COc1cc2c(cc1OC)-c1cc(N3CCCc4ccccc43)nc(=O)n1CC2,percent of 1 uM PGE2 response; plus low (about EC15) PGE2 agonist,14.6
O=c1cc(N2CCCCC2)c(-c2ccccc2)nn1Cc1ccccc1,percent of 1 uM PGE2 response; plus low (about EC15) PGE2 agonist,-15.69
COC(=O)c1sccc1NC(=O)c1cccc(OC)c1,percent of 1 uM PGE2 response; plus low (about EC15) PGE2 agonist,5.7
C=CCc1cc(C=O)cc(OC)c1OCc1ccc(Cl)cc1,percent of 1 uM PGE2 response; plus low (about EC15) PGE2 agonist,-14.57
CCOC(=O)C(C)Sc1ncc(OC)c(Sc2ccc(Cl)cc2)n1 (stereo not shown),percent of 1 uM PGE2 response; plus low (about EC15) PGE2 agonist,0.5133
C/C(=N\NC(=O)NC1CCCCC1)C1CCCCC1,percent of 1 uM PGE2 response; plus low (about EC15) PGE2 agonist,-16.34
CC1Cc2ccccc2N1C(=O)CSc1nnc(Cc2ccccc2)n1CCc1ccccc1 (stereo not shown),percent of 1 uM PGE2 response; plus low (about EC15) PGE2 agonist,-13.35
Cc1cccc(C)c1N1CCN(c2ccc3nnc(C(F)(F)F)n3n2)CC1,percent of 1 uM PGE2 response; plus low (about EC15) PGE2 agonist,10.31
Cc1ccccc1S(=O)(=O)c1c(C)cc(C)n(CC(C)C)c1=O,percent of 1 uM PGE2 response; plus low (about EC15) PGE2 agonist,-6.067
Cn1c(=O)[nH]c(=O)c2c1nc(CN1CCN(c3cccc(Cl)c3)CC1)n2Cc1ccccc1Cl,percent of 1 uM PGE2 response; plus low (about EC15) PGE2 agonist,3.583
Cc1ccc(-c2cc3nn(-c4ccccc4)c(N)c3c(=O)o2)cc1,percent of 1 uM PGE2 response; plus low (about EC15) PGE2 agonist,-13.72
O=C(c1ccc(Br)o1)N(Cc1ccccc1)Cc1ccccc1,percent of 1 uM PGE2 response; plus low (about EC15) PGE2 agonist,-9.587
Cc1ccc(S(=O)(=O)c2c(C)nn(-c3ccccc3)c2OC(=O)c2ccco2)cc1,percent of 1 uM PGE2 response; plus low (about EC15) PGE2 agonist,-15.98
COc1cccc(C2=NN(C(=O)c3cccs3)C(O)(C(F)(F)F)C2)c1 (stereo not shown),percent of 1 uM PGE2 response; plus low (about EC15) PGE2 agonist,-3.277
CC(=O)OCC(=O)[C@@]12OC(C)(C)O[C@@H]1C[C@H]1[C@H]3CC=C4C[C@@H](O)CC[C@]4(C)[C@@H]3CC[C@@]12C,percent of 1 uM PGE2 response; plus low (about EC15) PGE2 agonist,5.593
N#CCSc1nc2c(c(C3CC=CCC3)c1C#N)CCC2 (stereo not shown),percent of 1 uM PGE2 response; plus low (about EC15) PGE2 agonist,-3.637
CCOC(=O)Cc1csc(NC(NC(=O)CC)(C(F)(F)F)C(F)(F)F)n1,percent of 1 uM PGE2 response; plus low (about EC15) PGE2 agonist,5.28
Cc1ccc(-c2cc3ccccc3nc2N2CCOCC2)cc1,percent of 1 uM PGE2 response; plus low (about EC15) PGE2 agonist,9.733
COc1cc2ccccc2cc1C(=O)NC(=S)Nc1cccc(C(=O)O)c1,percent of 1 uM PGE2 response; plus low (about EC15) PGE2 agonist,-8.097
NC(=O)c1sc2nc(N3CCCCC3)c3c(c2c1N)CCCC3,percent of 1 uM PGE2 response; plus low (about EC15) PGE2 agonist,-1.293
CCCC1=C(C(=O)OCC)C(c2cccs2)C(C#N)=C(N)O1 (stereo not shown),percent of 1 uM PGE2 response; plus low (about EC15) PGE2 agonist,-10.76
COc1cc(CN2CCC(C(=O)N3CCN(c4ccccc4F)CC3)CC2)cc(OC)c1OC,percent of 1 uM PGE2 response; plus low (about EC15) PGE2 agonist,3.37
C=CCc1cc(C=O)cc(OCC)c1OCc1ccc(Cl)cc1,percent of 1 uM PGE2 response; plus low (about EC15) PGE2 agonist,0.4467

The last 3 entries again:

Compound	tested on / at	cAMP induction (%)
CCCC1=C(C(=O)OCC)C(c2cccs2)C(C#N)=C(N)O1 (stereo not shown)	percent of 1 uM PGE2 response; plus low (about EC15) PGE2 agonist	-10.76
COc1cc(CN2CCC(C(=O)N3CCN(c4ccccc4F)CC3)CC2)cc(OC)c1OC	percent of 1 uM PGE2 response; plus low (about EC15) PGE2 agonist	3.37
C=CCc1cc(C=O)cc(OCC)c1OCc1ccc(Cl)cc1	percent of 1 uM PGE2 response; plus low (about EC15) PGE2 agonist	0.4467